The values below come from article PMC7069074.

Amino acid sequences for entries named in this document (tags omitted).
UniProt P03372: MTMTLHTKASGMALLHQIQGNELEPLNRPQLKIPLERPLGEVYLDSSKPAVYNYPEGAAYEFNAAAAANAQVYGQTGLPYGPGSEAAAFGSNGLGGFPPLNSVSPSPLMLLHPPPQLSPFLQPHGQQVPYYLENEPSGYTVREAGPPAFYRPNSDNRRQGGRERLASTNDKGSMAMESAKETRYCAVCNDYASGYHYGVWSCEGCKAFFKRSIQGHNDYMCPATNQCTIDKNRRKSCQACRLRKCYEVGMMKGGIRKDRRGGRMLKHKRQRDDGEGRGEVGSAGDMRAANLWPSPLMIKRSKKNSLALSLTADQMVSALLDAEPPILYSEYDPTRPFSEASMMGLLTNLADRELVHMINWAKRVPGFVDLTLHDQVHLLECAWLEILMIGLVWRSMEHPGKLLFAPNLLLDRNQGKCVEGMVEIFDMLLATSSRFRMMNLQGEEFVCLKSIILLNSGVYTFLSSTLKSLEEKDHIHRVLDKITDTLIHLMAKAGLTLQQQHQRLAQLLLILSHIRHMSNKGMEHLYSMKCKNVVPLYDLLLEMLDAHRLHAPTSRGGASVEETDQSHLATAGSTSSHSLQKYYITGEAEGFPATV
UniProt P67809: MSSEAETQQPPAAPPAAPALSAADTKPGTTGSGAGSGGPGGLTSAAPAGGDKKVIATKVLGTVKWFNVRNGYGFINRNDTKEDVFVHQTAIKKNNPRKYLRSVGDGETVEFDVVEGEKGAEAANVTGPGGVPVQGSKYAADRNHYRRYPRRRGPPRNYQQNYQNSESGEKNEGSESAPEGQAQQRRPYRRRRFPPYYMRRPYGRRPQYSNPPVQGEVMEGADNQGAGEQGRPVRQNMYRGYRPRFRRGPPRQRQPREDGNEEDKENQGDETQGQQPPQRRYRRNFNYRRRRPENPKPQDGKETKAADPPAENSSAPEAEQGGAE

In assay [1] the target is estrogen receptor alpha (ERα) (human (endogenous in MCF-7 and ZR-75-1)) (UniProt P03372). The experiment in a line: co-IP; lysates of MCF-7 and ZR-75-1 NCSCs (differentiated cells), and of CSCs exposed to 1% FBS; antibody on Protein G-agarose beads, lysate 12 h at 4 °C, washed three times with ice-cold PBS, western blot. A general note: Immunoblotting shows a protein as a band on a membrane.

Assay [2] shares this target. The experiment in a line: condition: only in CSCs (cancer stem cells not exposed to FBS); co-IP; lysates of MCF-7 and ZR-75-1 CSCs (without FBS); antibody on Protein G-agarose beads, lysate 12 h at 4 °C, washed three times with ice-cold PBS, western blot.

No constants are given. Whether binding was seen depends on the method and setting. Binding seen in cells or lysates may run through a third protein. Some results given as binding are weak or reduced against the parent protein; the word gives no strength.

With “Y-box binding protein 1 (YB-1) (from UniProt P67809 1-324)”, the binding entry in assay [1] is given as “binds”; in assay [2] it was “no binding”.
